{"source": "PubChem BioAssay AID686943 | Drosophila RNAi Screening Center – 2013", "assay": "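Search across the genome for regulators of signalling from receptor tyrosine kinase to ERK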 (primary screen)", "cell system": "Drosophila S2R+ haemocyte-like cells expressing YFP-tagged ERK (Rolled)", "reagents": "long dsRNA against Drosophila genes", "challenge": "insulin stimulation versus unstimulated cells; dose and duration not given", "detection": "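Per-plate z-scores of phospho-ERK immunostaining normalised to YFP-tagged ERK, measured with and without insulin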", "reading the numbers": "replicate 1, z-score of dpERK with insulin and replicate 2, z-score of dpERK with insulin: higher = more active ERK per ERK-YFP after insulin", "note": "The deposit covers about 23,000 reagents; shown is a random part of those that have a named target and a result. 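Extra replicates exist only for a retested subset of genes; insulin dose and duration not given; both raised and lowered dpERK matter.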 Names joined by + are all predicted targets of the reagent. Further read-outs or replicates are left out here. The record does not give: the amount of reagent, the time to read-out."}
{"Target gene": "CG33109 (GeneID 326258)", "dsRNA": "DRSC16533", "replicate 1, z-score of dpERK with insulin": -0.17, "replicate 2, z-score of dpERK with insulin": -1.64}
{"Target gene": "5-HT7 (GeneID 43669)", "dsRNA": "DRSC12635", "replicate 1, z-score of dpERK with insulin": -0.14, "replicate 2, z-score of dpERK with insulin": 0.84}
{"Target gene": "CG15617 (GeneID 36871)", "dsRNA": "DRSC06570", "replicate 1, z-score of dpERK with insulin": 0.42, "replicate 2, z-score of dpERK with insulin": 0.45}
{"Target gene": "CG3793 (GeneID 34928)", "dsRNA": "DRSC01982", "replicate 1, z-score of dpERK with insulin": -0.27, "replicate 2, z-score of dpERK with insulin": -0.23}
{"Target gene": "CG17191 (GeneID 43249)", "dsRNA": "DRSC15185", "replicate 1, z-score of dpERK with insulin": -0.01, "replicate 2, z-score of dpERK with insulin": 0.05}
{"Target gene": "CG9775 (GeneID 40576)", "dsRNA": "DRSC12330", "replicate 1, z-score of dpERK with insulin": 0.84, "replicate 2, z-score of dpERK with insulin": 0.58}
{"Target gene": "CG9775 (GeneID 40576)", "dsRNA": "DRSC22667", "replicate 1, z-score of dpERK with insulin": 0.22, "replicate 2, z-score of dpERK with insulin": -1.25}
{"Target gene": "CG1394 (GeneID 32059)", "dsRNA": "DRSC19539", "replicate 1, z-score of dpERK with insulin": -0.07, "replicate 2, z-score of dpERK with insulin": 0.27}
{"Target gene": "esg (GeneID 34903)", "dsRNA": "DRSC03530", "replicate 1, z-score of dpERK with insulin": 0.23, "replicate 2, z-score of dpERK with insulin": -0.27}
{"Target gene": "en (GeneID 36240)", "dsRNA": "DRSC07609", "replicate 1, z-score of dpERK with insulin": -0.24, "replicate 2, z-score of dpERK with insulin": -0.44}
{"Target gene": "Adh + Adhr", "dsRNA": "DRSC01862", "replicate 1, z-score of dpERK with insulin": 0.26, "replicate 2, z-score of dpERK with insulin": -0.98}
{"Target gene": "Adh + Adhr", "dsRNA": "DRSC01863", "replicate 1, z-score of dpERK with insulin": 1.09, "replicate 2, z-score of dpERK with insulin": 0.51}
{"Target gene": "Prosalpha4 (GeneID 32584)", "dsRNA": "DRSC20271", "replicate 1, z-score of dpERK with insulin": -1.47, "replicate 2, z-score of dpERK with insulin": -1.26}
{"Target gene": "CG7509 (GeneID 38579)", "dsRNA": "DRSC08596", "replicate 1, z-score of dpERK with insulin": 0.71, "replicate 2, z-score of dpERK with insulin": 0.73}
{"Target gene": "CG6628 (GeneID 39183)", "dsRNA": "DRSC10679", "replicate 1, z-score of dpERK with insulin": 0.27, "replicate 2, z-score of dpERK with insulin": -0.12}
{"Target gene": "5-HT1B (GeneID 37191)", "dsRNA": "DRSC05031", "replicate 1, z-score of dpERK with insulin": 1.31, "replicate 2, z-score of dpERK with insulin": 1.32}
{"Target gene": "5-HT1B (GeneID 37191)", "dsRNA": "DRSC05769", "replicate 1, z-score of dpERK with insulin": -4.94, "replicate 2, z-score of dpERK with insulin": -2.53}
{"Target gene": "CG30291 (GeneID 246534)", "dsRNA": "DRSC03842", "replicate 1, z-score of dpERK with insulin": -1.29, "replicate 2, z-score of dpERK with insulin": 0.02}
{"Target gene": "CG30095 (GeneID 246453)", "dsRNA": "DRSC07175", "replicate 1, z-score of dpERK with insulin": -0.62, "replicate 2, z-score of dpERK with insulin": -0.17}
{"Target gene": "unc-104 (GeneID 36876)", "dsRNA": "DRSC07710", "replicate 1, z-score of dpERK with insulin": 0.3, "replicate 2, z-score of dpERK with insulin": 0.43}
{"Target gene": "CG13186 (GeneID 36294)", "dsRNA": "DRSC06311", "replicate 1, z-score of dpERK with insulin": 0.1, "replicate 2, z-score of dpERK with insulin": -0.35}

The list goes on, starting with the last 3 of the part before.
{"Target gene": "CG30095 (GeneID 246453)", "dsRNA": "DRSC07175", "replicate 1, z-score of dpERK with insulin": -0.62, "replicate 2, z-score of dpERK with insulin": -0.17}
{"Target gene": "unc-104 (GeneID 36876)", "dsRNA": "DRSC07710", "replicate 1, z-score of dpERK with insulin": 0.3, "replicate 2, z-score of dpERK with insulin": 0.43}
{"Target gene": "CG13186 (GeneID 36294)", "dsRNA": "DRSC06311", "replicate 1, z-score of dpERK with insulin": 0.1, "replicate 2, z-score of dpERK with insulin": -0.35}
{"Target gene": "CG32299 + CG32298", "dsRNA": "DRSC07980", "replicate 1, z-score of dpERK with insulin": 0.25, "replicate 2, z-score of dpERK with insulin": 0.13}
{"Target gene": "CG32299 + CG32298", "dsRNA": "DRSC22354", "replicate 1, z-score of dpERK with insulin": -0.04, "replicate 2, z-score of dpERK with insulin": -0.12}
{"Target gene": "Cpr66Cb (GeneID 38940)", "dsRNA": "DRSC10769", "replicate 1, z-score of dpERK with insulin": -0.01, "replicate 2, z-score of dpERK with insulin": 0.04}
{"Target gene": "CG30002 (GeneID 246384)", "dsRNA": "DRSC05182", "replicate 1, z-score of dpERK with insulin": -0.26, "replicate 2, z-score of dpERK with insulin": -0.28}
{"Target gene": "norpA (GeneID 31376)", "dsRNA": "DRSC18806", "replicate 1, z-score of dpERK with insulin": -0.18, "replicate 2, z-score of dpERK with insulin": 0.91}
{"Target gene": "Pfdn6 (GeneID 40176)", "dsRNA": "DRSC10915", "replicate 1, z-score of dpERK with insulin": -0.13, "replicate 2, z-score of dpERK with insulin": 1.4}
{"Target gene": "SdhC (GeneID 41340)", "dsRNA": "DRSC16088", "replicate 1, z-score of dpERK with insulin": -0.29, "replicate 2, z-score of dpERK with insulin": -0.91}
{"Target gene": "CG42372 + CG30100", "dsRNA": "DRSC05602", "replicate 1, z-score of dpERK with insulin": -0.16, "replicate 2, z-score of dpERK with insulin": -0.16}
{"Target gene": "Cpr47Ec (GeneID 36191)", "dsRNA": "DRSC07332", "replicate 1, z-score of dpERK with insulin": 0.71, "replicate 2, z-score of dpERK with insulin": 0.32}
{"Target gene": "mah (GeneID 42988)", "dsRNA": "DRSC14645", "replicate 1, z-score of dpERK with insulin": -0.14, "replicate 2, z-score of dpERK with insulin": -1.09}
{"Target gene": "CG13126 (GeneID 34323)", "dsRNA": "DRSC02222", "replicate 1, z-score of dpERK with insulin": 0.4, "replicate 2, z-score of dpERK with insulin": 0.43}
{"Target gene": "CG42819 (GeneID 10178852)", "dsRNA": "DRSC02264", "replicate 1, z-score of dpERK with insulin": -0.63, "replicate 2, z-score of dpERK with insulin": -1.12}
{"Target gene": "CG2256 (GeneID 31727)", "dsRNA": "DRSC18220", "replicate 1, z-score of dpERK with insulin": 0.2, "replicate 2, z-score of dpERK with insulin": 0}
{"Target gene": "Pop1 (GeneID 31475)", "dsRNA": "DRSC17739", "replicate 1, z-score of dpERK with insulin": -0.32, "replicate 2, z-score of dpERK with insulin": -1.48}
{"Target gene": "Sems (GeneID 40315)", "dsRNA": "DRSC11626", "replicate 1, z-score of dpERK with insulin": 0.13, "replicate 2, z-score of dpERK with insulin": -0.14}
{"Target gene": "ase (GeneID 30985)", "dsRNA": "DRSC18739", "replicate 1, z-score of dpERK with insulin": -0.26, "replicate 2, z-score of dpERK with insulin": -0.73}
{"Target gene": "CG31100 (GeneID 41075)", "dsRNA": "DRSC14453", "replicate 1, z-score of dpERK with insulin": 0.13, "replicate 2, z-score of dpERK with insulin": -0.19}
{"Target gene": "CG31100 (GeneID 41075)", "dsRNA": "DRSC14455", "replicate 1, z-score of dpERK with insulin": 0.14, "replicate 2, z-score of dpERK with insulin": -0.5}
{"Target gene": "CG43090 (GeneID 12798122)", "dsRNA": "DRSC17439", "replicate 1, z-score of dpERK with insulin": -0.07, "replicate 2, z-score of dpERK with insulin": 0.21}
